The results in this text go back to EP4692123A1, “ANTI-BCAM ANTIBODY AND ANTIBODY-DRUG CONJUGATE” (priority 2023, dated 2024).

Results are given in words; binding and its absence hold for the method and conditions named. Some results given as binding are weak or reduced against the parent protein; the word gives no strength.

The target in assay [1] is T1, human BCAM antigen protein expressed on the cell surface (human) (UniProt P50895).
T1 sequence (looked up): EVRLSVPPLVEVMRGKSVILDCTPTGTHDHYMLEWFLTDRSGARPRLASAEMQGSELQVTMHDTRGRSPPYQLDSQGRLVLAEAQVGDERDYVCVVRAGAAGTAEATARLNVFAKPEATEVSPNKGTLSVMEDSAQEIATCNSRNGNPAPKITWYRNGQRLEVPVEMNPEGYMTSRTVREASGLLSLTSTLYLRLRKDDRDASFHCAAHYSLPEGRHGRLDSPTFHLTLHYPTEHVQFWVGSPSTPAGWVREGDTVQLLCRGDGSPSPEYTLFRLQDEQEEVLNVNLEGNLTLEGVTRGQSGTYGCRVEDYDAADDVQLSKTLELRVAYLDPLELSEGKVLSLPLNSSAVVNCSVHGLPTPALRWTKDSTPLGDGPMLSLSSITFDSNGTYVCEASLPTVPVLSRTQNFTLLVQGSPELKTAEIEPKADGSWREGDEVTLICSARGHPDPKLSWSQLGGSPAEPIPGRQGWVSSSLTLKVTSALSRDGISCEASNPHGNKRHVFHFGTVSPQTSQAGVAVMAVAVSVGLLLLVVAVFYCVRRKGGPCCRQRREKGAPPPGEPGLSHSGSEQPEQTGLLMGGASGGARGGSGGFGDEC
The experiment in a line: flow cytometry on HEK293FT cells transfected with human BCAM.

The target of assay [2] is T1, human BCAM antigen protein expressed on the cell surface (human). Nature of the assay: confocal microscopy of SK-BR-3 cells, 10 µg/mL antibody, 4°C for 1 hour.

B1: Ab-I antibody (anti-BCAM human IgG4 antibody) (antibody, V domains shown)
VH: EVQLVESGGGLVKPGGSLRLSCAASGFTFSSYSMNWVRQAPGKGLEWVSSISSSSSYIYYADSVKGRFTISRDNAKNSLYLQMNSLRAEDTAVYYCARIIGGWLGDYWGQGTLVTVSS
VL: NIQMTQSPSSVSASVGDRVTITCRASQGISSWLAWYQQKPGKAPKLLIYAASSLRSGVPSRFSGSGSGTDFTLTISSLQPEDFATYYCQQANSFPPPTFGGGTKVEIK
notes: From a human scFv phage library, expressed in ExpiCHO-S
B1: the binding result in assay [1] and in assay [2] was “binds” each time.
